{"source": "PubChem BioAssay AID720505 | Drosophila RNAi Screening Center – 2013", "assay": "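Knock-downs that reduce calcium influx once internal stores are emptied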 (primary screen)", "system": "Drosophila S2R+ cells", "knock-down reagent": "long dsRNA against Drosophila genes", "challenge": "thapsigargin (2 µM) in calcium-free buffer to empty internal stores, then 2 mM calcium added back", "detection": "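Fluo-4 signal in 384-well plates read on a FLIPR after thapsigargin (2 µM, calcium-free) store depletion and 2 mM calcium add-back; unnormalised mean endpoint per well; screen run twice, selected wells retested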", "reading the numbers": "calcium signal and retest calcium signal: higher = more calcium entry after store depletion", "hit rule": "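Knock-downs counted as hits when calcium entry dropped relative to STIM1 positive and Rho1 negative controls present on each plate; roughly 1500 genes called, with reductions of differing size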", "calls": "active = called as lowering calcium entry; inactive = not called", "note": "In all, the deposit lists about 20,000 reagents; shown is an unselected part of those with a known target gene and a result. Over the whole deposit, about 2,100 (10%) got an active call. 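Raw plate signals without normalisation; calls rest on control-based scores that were not deposited; replicate 2 separates called from uncalled poorly.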 Names joined by + are all predicted targets of the reagent. Not stated in the record: the amount of reagent, the time to read-out."}
{"gene": "CG13492", "dsRNA": "DRSC04137", "calcium signal, replicate 1": 72.9, "calcium signal, replicate 2": 195, "Call": "inactive"}
{"gene": "lncRNA:CR43421 (long non-coding RNA:CR43421)", "dsRNA": "DRSC05819", "calcium signal, replicate 1": 123, "calcium signal, replicate 2": 118, "Call": "inactive"}
{"gene": "mal (maroon-like)", "dsRNA": "DRSC20581", "calcium signal, replicate 1": 142, "calcium signal, replicate 2": 149, "Call": "inactive"}
{"gene": "Ccp84Ad", "dsRNA": "DRSC12589", "calcium signal, replicate 1": 86.7, "calcium signal, replicate 2": 160, "retest calcium signal, replicate 1": 6386, "retest calcium signal, replicate 2": 130, "Call": "inactive"}
{"gene": "Ccp84Ad", "dsRNA": "DRSC22854", "calcium signal, replicate 1": 78.5, "calcium signal, replicate 2": 86.2, "Call": "inactive"}
{"gene": "CG2964", "dsRNA": "DRSC00554", "calcium signal, replicate 1": 145, "calcium signal, replicate 2": 88, "Call": "inactive"}
{"gene": "ham (hamlet)", "dsRNA": "DRSC01657", "calcium signal, replicate 1": 60.7, "calcium signal, replicate 2": 109, "Call": "active"}
{"gene": "ham (hamlet)", "dsRNA": "DRSC02070", "calcium signal, replicate 1": 78.1, "calcium signal, replicate 2": 102, "Call": "active"}
{"gene": "ham (hamlet)", "dsRNA": "DRSC02512", "calcium signal, replicate 1": 70.9, "calcium signal, replicate 2": 105, "retest calcium signal, replicate 1": 76.7, "retest calcium signal, replicate 2": 73.8, "Call": "inactive"}
{"gene": "ham (hamlet)", "dsRNA": "DRSC02513", "calcium signal, replicate 1": 68.5, "calcium signal, replicate 2": 83.5, "Call": "active"}
{"gene": "Ccdc114 (Coiled-coil domain containing protein 114)", "dsRNA": "DRSC15025", "calcium signal, replicate 1": 114, "calcium signal, replicate 2": 196, "Call": "inactive"}
{"gene": "Obp51a (Odorant-binding protein 51a)", "dsRNA": "DRSC22412", "calcium signal, replicate 1": 92.7, "calcium signal, replicate 2": 178, "Call": "inactive"}
{"gene": "CG9951", "dsRNA": "DRSC11105", "calcium signal, replicate 1": 101, "calcium signal, replicate 2": 98.7, "Call": "inactive"}
{"gene": "insb (insensible)", "dsRNA": "DRSC06995", "calcium signal, replicate 1": 133, "calcium signal, replicate 2": 127, "Call": "inactive"}
{"gene": "CR18228 (pseudo)", "dsRNA": "DRSC15317", "calcium signal, replicate 1": 68.7, "calcium signal, replicate 2": 160, "Call": "active"}
{"gene": "CG5359", "dsRNA": "DRSC15780", "calcium signal, replicate 1": 93.1, "calcium signal, replicate 2": 84.5, "Call": "inactive"}
{"gene": "CG17724", "dsRNA": "DRSC06687", "calcium signal, replicate 1": 121, "calcium signal, replicate 2": 190, "Call": "inactive"}

Continued; the last 3 above are carried over.
{"gene": "CR18228 (pseudo)", "dsRNA": "DRSC15317", "calcium signal, replicate 1": 68.7, "calcium signal, replicate 2": 160, "Call": "active"}
{"gene": "CG5359", "dsRNA": "DRSC15780", "calcium signal, replicate 1": 93.1, "calcium signal, replicate 2": 84.5, "Call": "inactive"}
{"gene": "CG17724", "dsRNA": "DRSC06687", "calcium signal, replicate 1": 121, "calcium signal, replicate 2": 190, "Call": "inactive"}
{"gene": "CG4332", "dsRNA": "DRSC19890", "calcium signal, replicate 1": 164, "calcium signal, replicate 2": 143, "Call": "inactive"}
{"gene": "CSN8 (COP9 signalosome subunit 8)", "dsRNA": "DRSC02257", "calcium signal, replicate 1": 141, "calcium signal, replicate 2": 217, "Call": "inactive"}
{"gene": "CG42726 + CG42727", "dsRNA": "DRSC14485", "calcium signal, replicate 1": 109, "calcium signal, replicate 2": 118, "Call": "inactive"}
{"gene": "CSN3 (COP9 signalosome subunit 3)", "dsRNA": "DRSC11859", "calcium signal, replicate 1": 99.2, "calcium signal, replicate 2": 122, "Call": "inactive"}
{"gene": "shtd (shattered)", "dsRNA": "DRSC20166", "calcium signal, replicate 1": 174, "calcium signal, replicate 2": 122, "Call": "inactive"}
{"gene": "CG6836", "dsRNA": "DRSC10722", "calcium signal, replicate 1": 59, "calcium signal, replicate 2": 77.5, "Call": "active"}
{"gene": "CG12155", "dsRNA": "DRSC17826", "calcium signal, replicate 1": 96.6, "calcium signal, replicate 2": 114, "Call": "inactive"}
{"gene": "CG12155", "dsRNA": "DRSC23294", "calcium signal, replicate 1": 117, "calcium signal, replicate 2": 141, "Call": "inactive"}
{"gene": "CG30151", "dsRNA": "DRSC05888", "calcium signal, replicate 1": 44.9, "calcium signal, replicate 2": 121, "Call": "active"}
{"gene": "pins (partner of inscuteable)", "dsRNA": "DRSC17043", "calcium signal, replicate 1": 73.7, "calcium signal, replicate 2": 81.9, "Call": "active"}
{"gene": "CG13258", "dsRNA": "DRSC02244", "calcium signal, replicate 1": 118, "calcium signal, replicate 2": 114, "Call": "inactive"}
